From PubChem BioAssay record AID360 (NCATS, 2006).

By UniProt entry, the sequences of proteins in these tests, tags left out.
UniProt P04062, whole entry, target on record: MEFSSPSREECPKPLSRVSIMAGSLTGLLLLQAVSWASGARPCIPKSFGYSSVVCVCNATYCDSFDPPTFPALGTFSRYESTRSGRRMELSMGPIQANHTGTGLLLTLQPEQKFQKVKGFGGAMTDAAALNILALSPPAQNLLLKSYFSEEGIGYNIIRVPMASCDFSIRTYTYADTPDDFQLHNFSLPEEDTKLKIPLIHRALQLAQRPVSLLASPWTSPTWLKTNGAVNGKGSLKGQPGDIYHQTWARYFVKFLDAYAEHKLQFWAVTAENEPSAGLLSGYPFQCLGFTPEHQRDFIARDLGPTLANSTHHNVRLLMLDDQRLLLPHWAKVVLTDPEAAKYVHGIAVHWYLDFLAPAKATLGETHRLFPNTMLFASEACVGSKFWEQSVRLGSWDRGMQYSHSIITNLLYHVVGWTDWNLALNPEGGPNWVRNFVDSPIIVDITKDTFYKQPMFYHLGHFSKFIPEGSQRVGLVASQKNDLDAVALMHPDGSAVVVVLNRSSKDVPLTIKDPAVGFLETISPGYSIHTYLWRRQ

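Cleavage of a resorufin-linked glucose substrate by isolated lysosomal acid glucosylceramidase was followed by fluorescence over a 20-minute room-temperature incubation.
Each compound was run as a titration series spanning about 0.6 nM up to 50 µM final.
The number is the fitted half-maximal concentration (AC50); a lower value means a more potent inhibitor.
The record treats a '>' qualifier as no measurable activity (inactive); no explicit numeric cut-off is stated.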

Values are in nM.
All entries here are filed as inactive.
Only inactive entries are shown; hits are left out here.

compound	fitted potency (nM)
CCCNC(=O)Nc1ccccc1C(=O)Nc1ccc(OC)cc1	>76900
CCOC(=O)N1CCN(S(=O)(=O)c2ccc(F)cc2)CC1	>76900
Cc1ccc(NC(=O)CSc2nc3c(c(=O)[nH]2)CCC3)cc1C	>76900
CC(=O)OC1CSc2nc3ccccc3n2C1 (stereo not given)	>76900
Cc1noc(C)c1CSc1nnc(-c2cccnc2)n1C1CCCCC1C (stereo not given)	>76900
Cn1c(=O)c2c(nc(N3CCOCC3)n2CCCNC2=NCCC2)n(C)c1=O	>76900
O=C(Nc1cccc(NS(=O)(=O)c2ccc(S(=O)(=O)NC3CC3)cc2)c1)c1ccccn1	48699
CCCNc1nc2c(c(=O)[nH]c(=O)n2C)n1Cc1cccc(Br)c1	>76900
CC1CCN(C(=O)CN2C(=O)c3ccccc3S2(=O)=O)CC1	>76900
CCCCN1CC(O)=C(c2nc3ccccc3s2)C1=N	>76900
CC1CN(C(=O)CN2C(=O)c3ccccc3C2=O)CC(C)O1 (stereo not given)	>76900
COc1ccc(CC(=O)OC(C)CN2CCCC2)cc1 (stereo not given)	>76900
Nc1nc(SCC(=O)N2CCc3ccccc32)[nH]c(=O)c1-c1ccccc1	>76900
O=C(NCCN1CCCC1)C1(S(=O)(=O)c2ccc(Cl)cc2)CC1	>76900
Cc1cc(N2CCN(Cc3ccc4c(c3)OCO4)CC2)n2ncnc2n1	>76900
COc1cccc(CNc2nc3ccccc3n2CCN2CCCCC2)c1	>76900
CC1CCN(C(=O)c2cc3ccccc3o2)CC1	>76900
COC(=O)C1CCCN1C(=O)C1CCCN1C(=O)CNC(=O)OCc1ccccc1 (stereo not given)	38299
N=c1n(CCN2CCOCC2)c2ccccc2n1Cc1ccccc1Br	>76900
O=C(Nn1c(=O)[nH]c2ccsc2c1=O)c1ccccc1	>76900
COc1cc(-c2nc(-c3cccc(C(F)(F)F)c3)no2)cc(OC)c1OC	37400
O=C(Nc1nnc(COc2ccc(F)cc2)s1)c1cccs1	>76900
COC(=O)CCC/C=C1/SCC(NC(=O)c2ccccc2)C1O (stereo not given)	>76900
O=C(COc1ccccc1)NCC(c1cccs1)N1CCOCC1 (stereo not given)	>76900
Cc1ccc(C2C(C#N)=C(N)Oc3cc4c(cc32)OCO4)cc1 (stereo not given)	>76900
Cc1cc(NC(=O)CSc2nc3ccccc3c(=O)n2Cc2ccc(F)cc2)no1	>76900
O=C(CCCn1c(=O)[nH]c2cc(Cl)ccc2c1=O)NCC1CCCO1 (stereo not given)	>76900
CCc1cc2c(NCCC(=O)O)ncnc2s1	>76900
Cc1ccccc1-n1nnnc1SCC(=O)Nc1ccc(S(=O)(=O)N2CCCC2)cc1	>76900
NC(=O)c1ccc(C2SCC(=O)N2Cc2ccccc2)cc1 (stereo not given)	>76900
COc1ccc(OC)c(NC(=O)C2CC(=O)n3ncnc3N2)c1 (stereo not given)	>76900
CCCN1CCN(C(c2cc3cc4c(cc3[nH]c2=O)OCO4)c2nnnn2C(C)(C)C)CC1 (stereo not given)	>76900
COC(=O)C(C)Oc1ccc2c3c(c(=O)oc2c1)CCCCC3 (stereo not given)	>76900
CCn1c(SCc2nc3cc(OC)c(OC)cc3c(=O)[nH]2)nnc1-c1ccncc1	>76900
Cn1c(=O)[nH]c(=O)c2c1nc(CN1CCOCC1)n2CCCO	>76900
CCn1c(SCCN2CCCCC2)nnc1-c1ccc(S(=O)(=O)N2CCOCC2)cc1	>76900
COc1cccc(C(=O)N2CCN(c3ncccn3)CC2)c1	>76900
CN1CCc2nc(SCC(=O)Nc3ccc(F)cc3)c(C#N)cc2C1	41700
CCS(=O)(=O)CCSc1nc2ccccc2s1	>76900
Cn1cc(Cl)c(C(=O)Nc2cccc(Cl)c2Cl)n1	>76900
CCOC(=O)c1cc(-c2ccc(/C=N\n3cnnc3)o2)ccc1Cl	>76900
Cc1cccc(C)c1NC(=O)CSc1nnnn1C	>76900
COCCNC(=O)CN(C(=O)Cn1nnc2ccccc21)c1ccccc1	>76900
COCCCn1c(C2CCCCC2)nc2oc3cc(OC)ccc3c(=O)c2c1=O	>76900
Cc1cnc(C(=O)Nc2ccccc2-c2nnn(CC(=O)NC3CCCC3)n2)cn1	>76900
O=C(NCc1ccco1)C1CCN(S(=O)(=O)N2CCC3(CC2)OCCO3)CC1	>76900
O=C(O)C1C(c2ccccc2)C(C(=O)N2CCOCC2)C1c1ccccc1 (stereo not given)	>76900
CCOc1ccccc1NC(=O)CN(c1ccc(C)cc1)S(=O)(=O)c1c(C)noc1C	>76900
CSc1ncc(Cl)c(C(=O)NCc2ccc3c(c2)OCO3)n1	>76900
COc1ccc(NC(=O)c2cc(=O)c3ccccc3o2)cn1	>76900
Cc1sc2ncn(CC(=O)NCCCC(=O)N3CCN(c4ncccn4)CC3)c(=O)c2c1C	>76900
Cc1ccc(S(=O)(=O)NC(CC(=O)NCC2CCCO2)c2ccco2)cc1 (stereo not given)	>76900
Cc1ccc(S(=O)(=O)Cc2csc(N)n2)cc1	>76900
COCC(=O)N(Cc1cc2cc(OC)ccc2[nH]c1=O)c1ccc(C)cc1	>76900
O=C(O)c1cc(-c2ccco2)[nH]n1	>76900
CN(C)C(=O)CSc1nc(SCC(=O)N(C)C)n(-c2ccccc2)n1	>76900
CC1(C)Cc2c(c(N3CCOCC3)nc3sc(-c4ccc(C(=O)O)o4)c(N)c23)CO1	>76900
CCCCCSc1nnc(C)c(=O)[nH]1	>76900
Cc1ccnc(Sc2nc3c(c(=O)[nH]c(=O)n3C)n2CCCc2ccccc2)n1	>76900
O=C(CCN1C(=O)COc2ccccc21)NCCN1CCN(c2cccc(Cl)c2)CC1	>76900
CCN(C(=O)CCN1C(=O)c2ccccc2C1=O)C1CCCCC1	53800
Cn1c(/C(C#N)=C/C2CC=CCC2)nc2ccccc21 (stereo not given)	>76900
O=C(CSc1nnc(-c2ccccc2)n1Cc1ccccc1)NC1CC1	>76900
N/C(CC(=O)NCCOc1ccccc1)=N\O	>76900

The last 8 entries again:

| compound | fitted potency (nM) |
|---|---|
| `CC1(C)Cc2c(c(N3CCOCC3)nc3sc(-c4ccc(C(=O)O)o4)c(N)c23)CO1` | >76900 |
| `CCCCCSc1nnc(C)c(=O)[nH]1` | >76900 |
| `Cc1ccnc(Sc2nc3c(c(=O)[nH]c(=O)n3C)n2CCCc2ccccc2)n1` | >76900 |
| `O=C(CCN1C(=O)COc2ccccc21)NCCN1CCN(c2cccc(Cl)c2)CC1` | >76900 |
| `CCN(C(=O)CCN1C(=O)c2ccccc2C1=O)C1CCCCC1` | 53800 |
| `Cn1c(/C(C#N)=C/C2CC=CCC2)nc2ccccc21` (stereo not given) | >76900 |
| `O=C(CSc1nnc(-c2ccccc2)n1Cc1ccccc1)NC1CC1` | >76900 |
| `N/C(CC(=O)NCCOc1ccccc1)=N\O` | >76900 |